Results taken from publication doi:10.1101/2020.04.22.056051.
No constants are given. Whether binding was seen depends on the method and setting. Binding seen in cells or lysates may run through a third protein. These calls come from enrichment with a bait or labelling near it, and not all partners need be listed.

Sequences of proteins named here, by UniProt entry; tags and fusion partners are left off.
UniProt Q9VCA8: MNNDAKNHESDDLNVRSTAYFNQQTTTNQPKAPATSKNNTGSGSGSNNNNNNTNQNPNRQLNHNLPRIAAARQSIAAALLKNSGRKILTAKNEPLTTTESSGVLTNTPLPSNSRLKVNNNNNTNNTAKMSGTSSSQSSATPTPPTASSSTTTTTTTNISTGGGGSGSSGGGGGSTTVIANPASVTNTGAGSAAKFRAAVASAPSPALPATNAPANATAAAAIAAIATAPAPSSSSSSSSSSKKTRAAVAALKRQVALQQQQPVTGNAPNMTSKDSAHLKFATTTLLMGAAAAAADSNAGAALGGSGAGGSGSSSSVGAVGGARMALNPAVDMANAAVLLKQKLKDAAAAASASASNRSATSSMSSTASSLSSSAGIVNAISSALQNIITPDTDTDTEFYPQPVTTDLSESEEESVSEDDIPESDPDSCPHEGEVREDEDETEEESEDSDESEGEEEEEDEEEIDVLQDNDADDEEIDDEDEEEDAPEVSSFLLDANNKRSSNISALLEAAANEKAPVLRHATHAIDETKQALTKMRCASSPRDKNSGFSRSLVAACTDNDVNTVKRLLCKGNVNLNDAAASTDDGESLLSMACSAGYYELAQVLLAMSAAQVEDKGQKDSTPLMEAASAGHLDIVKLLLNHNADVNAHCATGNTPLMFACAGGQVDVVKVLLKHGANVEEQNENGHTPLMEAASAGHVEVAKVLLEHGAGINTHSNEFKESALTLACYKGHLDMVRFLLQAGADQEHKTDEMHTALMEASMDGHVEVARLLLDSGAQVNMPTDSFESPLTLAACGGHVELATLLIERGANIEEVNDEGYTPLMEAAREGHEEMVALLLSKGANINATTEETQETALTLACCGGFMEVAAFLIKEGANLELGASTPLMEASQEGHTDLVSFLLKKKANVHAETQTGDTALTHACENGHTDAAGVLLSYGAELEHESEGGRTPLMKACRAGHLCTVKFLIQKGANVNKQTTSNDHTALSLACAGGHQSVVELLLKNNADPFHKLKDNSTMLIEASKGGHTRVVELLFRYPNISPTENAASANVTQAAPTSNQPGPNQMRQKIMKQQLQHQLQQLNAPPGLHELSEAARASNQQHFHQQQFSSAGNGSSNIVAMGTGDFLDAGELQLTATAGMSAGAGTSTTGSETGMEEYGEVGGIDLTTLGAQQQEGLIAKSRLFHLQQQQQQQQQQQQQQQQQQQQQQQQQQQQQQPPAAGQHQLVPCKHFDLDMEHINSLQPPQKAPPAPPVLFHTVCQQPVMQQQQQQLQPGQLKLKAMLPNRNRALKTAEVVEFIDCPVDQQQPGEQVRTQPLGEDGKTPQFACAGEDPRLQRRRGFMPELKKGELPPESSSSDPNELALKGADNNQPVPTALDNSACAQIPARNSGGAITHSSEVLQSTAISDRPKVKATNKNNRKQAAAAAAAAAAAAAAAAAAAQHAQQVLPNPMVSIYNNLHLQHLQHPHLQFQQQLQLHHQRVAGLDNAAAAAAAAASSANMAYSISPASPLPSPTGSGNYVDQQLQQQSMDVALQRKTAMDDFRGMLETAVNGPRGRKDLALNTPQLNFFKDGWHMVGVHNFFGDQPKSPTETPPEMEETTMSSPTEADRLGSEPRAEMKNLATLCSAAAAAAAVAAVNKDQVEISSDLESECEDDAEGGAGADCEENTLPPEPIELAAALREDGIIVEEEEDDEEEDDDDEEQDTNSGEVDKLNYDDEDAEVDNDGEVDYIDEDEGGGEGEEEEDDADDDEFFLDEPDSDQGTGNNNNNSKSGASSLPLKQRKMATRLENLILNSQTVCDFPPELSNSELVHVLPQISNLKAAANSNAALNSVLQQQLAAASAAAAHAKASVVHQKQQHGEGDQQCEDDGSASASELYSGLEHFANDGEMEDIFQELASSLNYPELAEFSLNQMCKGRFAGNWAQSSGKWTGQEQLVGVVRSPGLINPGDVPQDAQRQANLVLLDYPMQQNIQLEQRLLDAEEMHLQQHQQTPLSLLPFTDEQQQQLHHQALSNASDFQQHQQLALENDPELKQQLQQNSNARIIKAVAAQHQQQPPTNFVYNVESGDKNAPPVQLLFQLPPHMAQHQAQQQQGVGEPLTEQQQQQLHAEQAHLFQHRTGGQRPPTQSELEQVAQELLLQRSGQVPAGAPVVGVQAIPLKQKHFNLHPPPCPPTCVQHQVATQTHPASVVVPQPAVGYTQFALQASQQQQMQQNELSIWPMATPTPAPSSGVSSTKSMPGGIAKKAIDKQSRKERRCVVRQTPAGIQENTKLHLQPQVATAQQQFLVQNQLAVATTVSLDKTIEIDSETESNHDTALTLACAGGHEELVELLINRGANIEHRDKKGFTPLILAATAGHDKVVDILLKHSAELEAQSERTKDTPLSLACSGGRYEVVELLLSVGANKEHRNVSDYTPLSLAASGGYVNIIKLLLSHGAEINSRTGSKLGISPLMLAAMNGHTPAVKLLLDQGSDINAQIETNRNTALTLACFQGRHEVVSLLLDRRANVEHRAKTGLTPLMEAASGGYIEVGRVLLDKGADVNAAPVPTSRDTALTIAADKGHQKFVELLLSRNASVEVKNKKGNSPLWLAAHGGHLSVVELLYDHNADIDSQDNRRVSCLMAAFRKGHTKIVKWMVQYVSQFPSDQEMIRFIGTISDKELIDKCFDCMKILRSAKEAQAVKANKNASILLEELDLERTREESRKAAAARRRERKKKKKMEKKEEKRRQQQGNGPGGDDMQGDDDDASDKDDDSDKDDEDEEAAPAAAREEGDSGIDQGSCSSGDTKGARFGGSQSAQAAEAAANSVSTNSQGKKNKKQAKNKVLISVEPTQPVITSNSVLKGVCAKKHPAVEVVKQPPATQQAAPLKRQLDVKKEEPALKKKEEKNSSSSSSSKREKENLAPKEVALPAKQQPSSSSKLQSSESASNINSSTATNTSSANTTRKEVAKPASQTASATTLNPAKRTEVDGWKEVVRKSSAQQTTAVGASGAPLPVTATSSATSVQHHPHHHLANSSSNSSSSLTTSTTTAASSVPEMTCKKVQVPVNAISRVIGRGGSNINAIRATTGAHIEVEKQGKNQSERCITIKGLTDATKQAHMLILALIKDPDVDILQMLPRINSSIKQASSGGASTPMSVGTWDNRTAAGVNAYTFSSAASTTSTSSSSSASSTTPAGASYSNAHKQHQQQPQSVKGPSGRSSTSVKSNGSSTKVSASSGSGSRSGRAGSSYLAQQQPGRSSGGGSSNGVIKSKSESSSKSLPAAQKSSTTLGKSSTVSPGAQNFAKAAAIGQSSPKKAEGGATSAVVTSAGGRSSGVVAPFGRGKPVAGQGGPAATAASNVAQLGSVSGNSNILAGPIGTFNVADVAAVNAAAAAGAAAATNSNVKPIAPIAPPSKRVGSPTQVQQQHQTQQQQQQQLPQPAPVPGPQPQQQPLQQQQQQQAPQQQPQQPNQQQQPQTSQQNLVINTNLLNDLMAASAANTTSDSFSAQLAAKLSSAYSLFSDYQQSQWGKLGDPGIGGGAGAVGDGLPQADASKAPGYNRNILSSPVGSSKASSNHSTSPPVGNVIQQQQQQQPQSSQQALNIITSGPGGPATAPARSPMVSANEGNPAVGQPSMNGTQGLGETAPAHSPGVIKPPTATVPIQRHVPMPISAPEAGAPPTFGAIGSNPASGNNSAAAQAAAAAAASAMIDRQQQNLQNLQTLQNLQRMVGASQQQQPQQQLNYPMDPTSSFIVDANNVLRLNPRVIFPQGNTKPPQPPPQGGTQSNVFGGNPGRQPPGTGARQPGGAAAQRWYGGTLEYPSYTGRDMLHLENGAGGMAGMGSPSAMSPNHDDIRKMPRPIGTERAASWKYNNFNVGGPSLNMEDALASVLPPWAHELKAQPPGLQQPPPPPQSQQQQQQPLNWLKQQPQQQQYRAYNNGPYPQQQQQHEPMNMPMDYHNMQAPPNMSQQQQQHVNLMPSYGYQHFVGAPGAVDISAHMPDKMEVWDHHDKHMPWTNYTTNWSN

Biological target: TurboID-Mask (Drosophila) (UniProt Q9VCA8)
Assay: proximity labelling

B1: Jupiter (protein, UniProt Q9I7K0 1-208)
chain: MAAYAAFKHVELYNVGKAKKRVLRPPGGGSSDIFGSEMPQTPRNVKNRMASNIFAAEKDNGVKNNVRQGAHRFYFIGDAPRRGQKTVDSHSRLFGEPTRPITPGKNHMKSSIPFGQNTEAVAAQKLLTTNGHYNGKSGSVSSASSSVSSSTENLKMNSGSRSEGNPVTGEGYKVVANEYSQRQESSNGGTPVINKNRIPPGGYSSGLW
modifications: biotinylated in vivo by TurboID-Mask (sites not given)
- binding: binds
